Where two headings read alike, the source gives them in different places. Results are given in words; binding and its absence hold for the method and conditions named. Binding seen in cells or lysates may run through a third protein. Some results given as binding are weak or reduced against the parent protein; the word gives no strength. For part of these data: Where a sequence is shown, tags or fusion partners need not be part of it.
T1: GFP-tagged MEX3B (human) (UniProt Q6ZN04)
T1 sequence: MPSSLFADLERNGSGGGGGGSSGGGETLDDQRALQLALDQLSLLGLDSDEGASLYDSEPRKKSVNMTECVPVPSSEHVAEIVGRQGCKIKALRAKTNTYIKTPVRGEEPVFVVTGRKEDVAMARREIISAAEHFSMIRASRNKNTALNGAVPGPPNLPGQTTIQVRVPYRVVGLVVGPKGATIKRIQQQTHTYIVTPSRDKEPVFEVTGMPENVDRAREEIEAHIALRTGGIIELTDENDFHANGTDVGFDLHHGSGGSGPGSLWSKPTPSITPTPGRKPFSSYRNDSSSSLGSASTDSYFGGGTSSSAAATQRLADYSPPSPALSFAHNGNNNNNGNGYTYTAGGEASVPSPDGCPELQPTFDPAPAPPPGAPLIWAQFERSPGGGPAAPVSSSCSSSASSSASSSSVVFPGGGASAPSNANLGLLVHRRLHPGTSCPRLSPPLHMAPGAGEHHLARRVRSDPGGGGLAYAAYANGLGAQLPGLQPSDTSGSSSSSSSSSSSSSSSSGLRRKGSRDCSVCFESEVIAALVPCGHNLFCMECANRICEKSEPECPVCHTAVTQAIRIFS

Protein sequences, listed by entry. Tags and fused reporters are not part of them.
UniProt Q9UMS4: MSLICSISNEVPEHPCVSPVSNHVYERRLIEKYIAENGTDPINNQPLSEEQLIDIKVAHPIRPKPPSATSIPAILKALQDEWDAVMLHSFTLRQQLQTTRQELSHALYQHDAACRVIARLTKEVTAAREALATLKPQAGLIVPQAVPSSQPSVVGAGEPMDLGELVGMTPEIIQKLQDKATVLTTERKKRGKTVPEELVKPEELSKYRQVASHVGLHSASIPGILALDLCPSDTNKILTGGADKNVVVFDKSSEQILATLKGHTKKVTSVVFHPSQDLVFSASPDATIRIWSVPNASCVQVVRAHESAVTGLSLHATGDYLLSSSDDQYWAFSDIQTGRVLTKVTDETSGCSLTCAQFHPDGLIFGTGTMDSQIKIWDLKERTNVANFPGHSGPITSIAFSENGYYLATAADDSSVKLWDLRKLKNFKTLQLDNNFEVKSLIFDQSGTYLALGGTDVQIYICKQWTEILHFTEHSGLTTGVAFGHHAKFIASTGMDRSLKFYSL
UniProt O95816: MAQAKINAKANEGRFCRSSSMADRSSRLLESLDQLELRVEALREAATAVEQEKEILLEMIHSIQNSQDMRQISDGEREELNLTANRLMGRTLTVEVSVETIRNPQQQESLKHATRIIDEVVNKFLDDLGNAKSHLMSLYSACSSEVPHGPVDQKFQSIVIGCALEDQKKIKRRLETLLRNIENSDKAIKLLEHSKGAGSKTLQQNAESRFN
UniProt P46379: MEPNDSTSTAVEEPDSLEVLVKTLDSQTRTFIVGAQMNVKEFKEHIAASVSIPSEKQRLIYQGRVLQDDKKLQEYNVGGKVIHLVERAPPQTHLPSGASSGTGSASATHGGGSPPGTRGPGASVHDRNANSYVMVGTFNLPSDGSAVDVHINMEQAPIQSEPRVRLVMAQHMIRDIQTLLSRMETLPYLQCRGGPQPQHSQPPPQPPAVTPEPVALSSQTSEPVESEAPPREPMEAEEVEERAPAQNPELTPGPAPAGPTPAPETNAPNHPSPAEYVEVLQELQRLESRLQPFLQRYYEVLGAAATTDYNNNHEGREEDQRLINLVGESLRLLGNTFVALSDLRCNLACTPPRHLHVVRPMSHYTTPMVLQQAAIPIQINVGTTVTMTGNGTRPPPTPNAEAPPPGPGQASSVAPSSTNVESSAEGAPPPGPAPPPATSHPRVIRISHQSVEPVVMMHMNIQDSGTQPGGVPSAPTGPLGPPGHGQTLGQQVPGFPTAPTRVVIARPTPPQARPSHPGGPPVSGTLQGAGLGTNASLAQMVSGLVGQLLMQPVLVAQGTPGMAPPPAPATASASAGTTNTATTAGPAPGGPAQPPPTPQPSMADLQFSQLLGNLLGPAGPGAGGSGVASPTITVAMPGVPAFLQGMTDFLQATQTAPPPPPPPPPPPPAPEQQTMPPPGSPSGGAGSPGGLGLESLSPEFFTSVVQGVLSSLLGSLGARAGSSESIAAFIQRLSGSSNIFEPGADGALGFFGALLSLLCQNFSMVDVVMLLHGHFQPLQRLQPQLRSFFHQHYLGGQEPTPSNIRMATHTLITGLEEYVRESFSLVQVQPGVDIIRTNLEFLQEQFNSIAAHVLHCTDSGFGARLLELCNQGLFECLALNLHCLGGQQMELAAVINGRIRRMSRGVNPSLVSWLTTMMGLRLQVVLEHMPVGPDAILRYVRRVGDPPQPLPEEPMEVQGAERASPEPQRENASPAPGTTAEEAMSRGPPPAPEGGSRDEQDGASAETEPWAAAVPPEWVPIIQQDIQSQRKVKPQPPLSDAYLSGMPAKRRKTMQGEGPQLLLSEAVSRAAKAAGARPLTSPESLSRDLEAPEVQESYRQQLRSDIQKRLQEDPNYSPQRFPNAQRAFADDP
UniProt P0DMV8: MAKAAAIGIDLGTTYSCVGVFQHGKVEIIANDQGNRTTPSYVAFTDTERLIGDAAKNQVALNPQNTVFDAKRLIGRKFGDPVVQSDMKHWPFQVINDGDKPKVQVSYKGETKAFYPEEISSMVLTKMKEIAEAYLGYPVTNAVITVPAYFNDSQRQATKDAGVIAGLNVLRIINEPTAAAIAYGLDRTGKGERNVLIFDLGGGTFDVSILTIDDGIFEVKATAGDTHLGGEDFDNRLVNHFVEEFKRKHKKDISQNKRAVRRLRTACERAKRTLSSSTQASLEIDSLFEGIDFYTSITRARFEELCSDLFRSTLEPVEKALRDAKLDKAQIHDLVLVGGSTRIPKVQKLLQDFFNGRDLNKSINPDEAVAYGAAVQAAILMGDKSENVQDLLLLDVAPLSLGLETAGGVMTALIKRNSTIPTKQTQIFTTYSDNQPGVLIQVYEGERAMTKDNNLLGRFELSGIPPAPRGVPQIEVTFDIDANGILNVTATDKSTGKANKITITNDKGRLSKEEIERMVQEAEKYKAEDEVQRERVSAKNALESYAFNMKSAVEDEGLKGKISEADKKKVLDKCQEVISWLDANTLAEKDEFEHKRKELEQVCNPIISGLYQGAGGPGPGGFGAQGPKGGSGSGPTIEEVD
UniProt O95602: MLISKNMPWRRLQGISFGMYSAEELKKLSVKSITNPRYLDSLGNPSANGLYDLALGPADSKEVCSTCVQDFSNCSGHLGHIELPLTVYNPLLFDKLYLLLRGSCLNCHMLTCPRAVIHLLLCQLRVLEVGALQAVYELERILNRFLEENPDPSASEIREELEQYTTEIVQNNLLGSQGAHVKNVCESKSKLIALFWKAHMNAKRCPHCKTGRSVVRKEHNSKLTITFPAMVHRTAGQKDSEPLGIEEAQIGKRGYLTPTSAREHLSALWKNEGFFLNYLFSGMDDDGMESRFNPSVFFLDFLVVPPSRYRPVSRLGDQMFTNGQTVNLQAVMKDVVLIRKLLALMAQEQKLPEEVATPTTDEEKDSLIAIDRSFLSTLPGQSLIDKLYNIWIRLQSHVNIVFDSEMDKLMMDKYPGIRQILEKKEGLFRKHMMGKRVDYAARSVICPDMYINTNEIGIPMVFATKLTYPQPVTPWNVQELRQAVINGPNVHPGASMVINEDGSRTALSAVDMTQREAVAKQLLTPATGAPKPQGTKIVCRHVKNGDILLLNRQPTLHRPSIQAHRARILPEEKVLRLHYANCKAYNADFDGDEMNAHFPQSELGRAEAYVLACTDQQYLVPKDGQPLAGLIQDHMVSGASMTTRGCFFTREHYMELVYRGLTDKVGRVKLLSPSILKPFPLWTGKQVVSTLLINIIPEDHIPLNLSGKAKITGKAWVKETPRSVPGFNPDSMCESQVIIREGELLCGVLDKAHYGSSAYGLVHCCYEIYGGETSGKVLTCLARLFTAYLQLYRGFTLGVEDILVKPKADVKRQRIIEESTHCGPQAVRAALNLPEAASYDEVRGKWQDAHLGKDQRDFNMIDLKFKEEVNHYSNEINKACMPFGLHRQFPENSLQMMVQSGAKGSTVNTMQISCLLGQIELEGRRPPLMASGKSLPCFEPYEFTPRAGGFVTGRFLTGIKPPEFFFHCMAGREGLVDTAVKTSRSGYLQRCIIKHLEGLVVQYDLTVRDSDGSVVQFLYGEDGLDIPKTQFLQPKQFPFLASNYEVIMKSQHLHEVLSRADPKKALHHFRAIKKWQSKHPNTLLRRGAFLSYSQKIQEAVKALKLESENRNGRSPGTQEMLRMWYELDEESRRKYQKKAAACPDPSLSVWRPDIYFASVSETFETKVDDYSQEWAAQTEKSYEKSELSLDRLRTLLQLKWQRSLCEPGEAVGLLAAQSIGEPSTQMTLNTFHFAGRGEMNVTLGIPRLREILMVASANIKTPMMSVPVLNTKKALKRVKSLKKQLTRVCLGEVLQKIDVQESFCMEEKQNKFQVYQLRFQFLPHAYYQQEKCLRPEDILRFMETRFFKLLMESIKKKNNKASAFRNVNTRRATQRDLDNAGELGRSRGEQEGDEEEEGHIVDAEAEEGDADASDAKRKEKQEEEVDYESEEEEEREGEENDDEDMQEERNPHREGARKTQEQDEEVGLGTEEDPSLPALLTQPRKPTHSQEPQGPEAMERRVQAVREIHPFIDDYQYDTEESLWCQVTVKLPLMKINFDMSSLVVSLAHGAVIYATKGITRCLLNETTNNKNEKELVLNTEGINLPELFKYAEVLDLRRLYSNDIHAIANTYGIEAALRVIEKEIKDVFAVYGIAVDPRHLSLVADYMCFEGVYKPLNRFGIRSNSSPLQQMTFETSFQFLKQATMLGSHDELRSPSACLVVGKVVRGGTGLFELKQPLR


What was measured:
[1] = target: GFP-tagged PRPF19 (human) (UniProt Q9UMS4); assay: co-IP; GFP-tagged RBUL or GFP empty vector transiently expressed in HEK293T; lysis in mRIPA buffer; GFP-trap agarose beads, 1 h at 4 °C; Western blot
[2] = target: endogenous PRPF19 (human (endogenous in HEK293T)) (UniProt Q9UMS4); assay: co-IP; endogenous PRPF19 pulled down with a PRPF19-specific antibody from untransfected HEK293T cells; control omitting the antibody; Western blot
GFP-tagged MEX3B (human) [3] = target: T1, GFP-tagged MEX3B (human); assay: co-IP; GFP-tagged RBUL or GFP empty vector transiently expressed in HEK293T; lysis in mRIPA buffer; GFP-trap agarose beads, 1 h at 4 °C; Western blot
GFP-tagged MEX3B (human) [4] = target: T1, GFP-tagged MEX3B (human); assay: as above; remark: listed apart in the source

Row | binding [1] | binding [2] | binding (GFP-tagged MEX3B (human) [3]) | binding (GFP-tagged MEX3B (human) [4]) | Molecule
1 | binds | binds | – | – | BAG2 (from UniProt O95816 1-211)
2 | binds | binds | – | – | BAG6/BAT3 (from UniProt P46379 1-1132)
3 | binds | binds weakly | binds | – | HSPA1A (from UniProt P0DMV8 1-641)
4 | – | – | binds | – | POLR1A (from UniProt O95602 1-1720)
5 | binds | binds | binds | – | ubiquitin-dependent co-chaperone VCP (from UniProt P55072 1-806)
6 | – | – | – | binds | POLR3A (protein, UniProt O14802 1-1390) MVKEQFRETDVAKKISHICFGMKSPEEMRQQAHIQVVSKNLYSQDNQHAPLLYGVLDHRMGTSEKDRPCETCGKNLADCLGHYGYIDLELPCFHVGYFRAVIGILQMICKTCCHIMLSQEEKKQFLDYLKRPGLTYLQKRGLKKKISDKCRKKNICHHCGAFNGTVKKCGLLKIIHEKYKTNKKVVDPIVSNFLQSFETAIEHNKEVEPLLGRAQENLNPLVVLNLFKRIPAEDVPLLLMNPEAGKPSDLILTRLLVPPLCIRPSVVSDLKSGTNEDDLTMKLTEIIFLNDVIKKHRISGAKTQMIMEDWDFLQLQCALYINSELSGIPLNMAPKKWTRGFVQRLKGKQGRFRGNLSGKRVDFSGRTVISPDPNLRIDEVAVPVHVAKILTFPEKVNKANINFLRKLVQNGPEVHPGANFIQQRHTQMKRFLKYGNREKMAQELKYGDIVERHLIDGDVVLFNRQPSLHKLSIMAHLARVKPHRTFRFNECVCTPYNADFDGDEMNLHLPQTEEAKAEALVLMGTKANLVTPRNGEPLIAAIQDFLTGAYLLTLKDTFFDRAKACQIIASILVGKDEKIKVRLPPPTILKPVTLWTGKQIFSVILRPSDDNPVRANLRTKGKQYCGKGEDLCANDSYVTIQNSELMSGSMDKGTLGSGSKNNIFYILLRDWGQNEAADAMSRLARLAPVYLSNRGFSIGIGDVTPGQGLLKAKYELLNAGYKKCDEYIEALNTGKLQQQPGCTAEETLEALILKELSVIRDHAGSACLRELDKSNSPLTMALCGSKGSFINISQMIACVGQQAISGSRVPDGFENRSLPHFEKHSKLPAAKGFVANSFYSGLTPTEFFFHTMAGREGLVDTAVKTAETGYMQRRLVKSLEDLCSQYDLTVRSSTGDIIQFIYGGDGLDPAAMEGKDEPLEFKRVLDNIKAVFPCPSEPALSKNELILTTESIMKKSEFLCCQDSFLQEIKKFIKGVSEKIKKTRDKYGINDNGTTEPRVLYQLDRITPTQVEKFLETCRDKYMRAQMEPGSAVGALCAQSIGEPGTQMTLKTFHFAGVASMNITLGVPRIKEIINASKAISTPIITAQLDKDDDADYARLVKGRIEKTLLGEISEYIEEVFLPDDCFILVKLSLERIRLLRLEVNAETVRYSICTSKLRVKPGDVAVHGEAVVCVTPRENSKSSMYYVLQFLKEDLPKVVVQGIPEVSRAVIHIDEQSGKEKYKLLVEGDNLRAVMATHGVKGTRTTSNNTYEVEKTLGIEAARTTIINEIQYTMVNHGMSIDRRHVMLLSDLMTYKGEVLGITRFGLAKMKESVLMLASFEKTADHLFDAAYFGQKDSVCGVSECIIMGIPMNIGTGLFKLLHKADRDPNPPKRPLIFDTNEFHIPLVT

Source: publication PMC5707401
